The other results are listed elsewhere or left out.
Target: OsWRKY34 (Oryza sativa, UniProt Q0JBA9 1-250)
Assay: protein-binding microarray (RPBM); PBS, 2% BSA, 51.3 ng/ul salmon testes DNA, 50 uM zinc acetate, 200 nM TF, 25 C, 1 h; high values mean tight binding
Details: protein: recombinant; tags: N-terminal polyhistidine and DsRed monomer fusion (pET32a); label: CyDye5-dUTP incorporated in the synthesized complementary strand; 3' TTTTT single-stranded linker to array surface; dsDNA, one strand shown
In short: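 A custom Agilent array was converted to double-stranded form by primer extension with Cy5-dUTP and blocked with 2% BSA. Protein at 200 nM in PBS with 2% BSA, salmon testes DNA and 50 µM zinc acetate was applied for 1 h at 25 °C, followed by washing. The proteins were polyhistidine–DsRed N-terminal fusions of transcription factors, expressed in E. coli BL21-CodonPlus and Ni–NTA-purified. The binding signal is per-feature fluorescence intensity (arbitrary units) from an Axon 4000B scanner.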

Chains of the proteins cited; added tags and fusions are not shown.
UniProt Q0JBA9, entry or part of it: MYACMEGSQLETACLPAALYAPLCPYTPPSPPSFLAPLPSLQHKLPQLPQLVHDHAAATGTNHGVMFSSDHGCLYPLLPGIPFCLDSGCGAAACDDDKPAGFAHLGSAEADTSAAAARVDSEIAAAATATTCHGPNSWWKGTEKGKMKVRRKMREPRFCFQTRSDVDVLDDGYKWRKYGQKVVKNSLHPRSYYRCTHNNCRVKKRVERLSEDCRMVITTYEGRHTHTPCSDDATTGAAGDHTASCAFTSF

With “GGAACACCGCCGCGCCATCGTCGTCCTGGAGCGCGCTCCGCGGAGTCACCTAGTGCAG” as the sequence, how does the binding signal read?
The binding signal was 11400 fluorescence intensity (a.u.).

For “GCTTCCCTTCTTCTTCTTCTTCGTTGATCCACTCACCCGCCGGAGTCACCTAGTGCAG”, which binding signal is on record?
The binding signal was 9210 fluorescence intensity (a.u.).

For “CCGACTTGTGTTCACTTCATTACGGCAATACAACTTTGTCCGGAGTCACCTAGTGCAG”, which binding signal is on record?
Its binding signal is 12200 fluorescence intensity (a.u.).

For “CCTTTGCTACTTACATCACTGGGTTGAAACTTGATTCCCACGGAGTCACCTAGTGCAG”, which binding signal is on record?
The binding signal was 8250 fluorescence intensity (a.u.).

For “TTTGCATGTGGTTTGGTTTTCTTGTGTTGGCTGTTGTTGTCGGAGTCACCTAGTGCAG”, which binding signal is on record?
Its binding signal is 9210 fluorescence intensity (a.u.).

Which binding signal does the source give for “ACAACTTTTCAACTTCTTATTCCTCCCGTATCAAAATATACGGAGTCACCTAGTGCAG” here?
The binding signal was 9440 fluorescence intensity (a.u.).

For “GGCTGTCTCAACTCCAAATATTGCCTTTGCTTCACTCCTACGGAGTCACCTAGTGCAG”, which binding signal is on record?
The binding signal was 9760 fluorescence intensity (a.u.).

“CTTCCACACACACCTAACCTCAGTGCTCCCTCGGTAATTGCGGAGTCACCTAGTGCAG” was tested. Which binding signal did it give?
Its binding signal is 9540 fluorescence intensity (a.u.).

“AGAGAGAGAGGGGAGGGCAGCAGAAGGGGAGCGGCGAAGCCGGAGTCACCTAGTGCAG” was tested. Which binding signal did it give?
The binding signal was 9400 ± 875 fluorescence intensity (a.u.).

“GAAGAGTTGGTTATATTTCCGGTTGTGTGTGTTTTGCCCCCGGAGTCACCTAGTGCAG” was tested. Which binding signal did it give?
Its binding signal is 8290 fluorescence intensity (a.u.).

“CTGACCAAAATGTTCGTTCTACACTCCACATAGTTTTTCTCGGAGTCACCTAGTGCAG” was tested. Which binding signal did it give?
Its binding signal is 9930 fluorescence intensity (a.u.).

With “TGGTGGAGGAGGAGATTAGGGTTTGATTAGGGTAGATAGACGGAGTCACCTAGTGCAG” as the sequence, how does the binding signal read?
The binding signal was 8770 fluorescence intensity (a.u.).

“ATGTGTGTGTGTGTGTGTGTCGCTGTACTGCCTTCCGTCTCGGAGTCACCTAGTGCAG” was tested. Which binding signal did it give?
The binding signal was 13900 fluorescence intensity (a.u.).

For “GGGTGACGGGAGCAGCGGCGCGCGGGTGGTGGGGCTTGGACGGAGTCACCTAGTGCAG”, which binding signal is on record?
Its binding signal is 10700 fluorescence intensity (a.u.).

For “TACACACACGCACGAGCCCACACACACACTAGCATATTGACGGAGTCACCTAGTGCAG”, which binding signal is on record?
The binding signal was 12000 fluorescence intensity (a.u.).

For “AATCATGTGCTAATAATCACCCGTTTACTTATTTTTTATGCGGAGTCACCTAGTGCAG”, which binding signal is on record?
The binding signal was 10800 fluorescence intensity (a.u.).

For “TCACATGTCTTTGTACTATTTCCTTATTAATTCTTAAAAGCGGAGTCACCTAGTGCAG”, which binding signal is on record?
Its binding signal is 9080 fluorescence intensity (a.u.).

“ACCTCTAGTATATAGCTGACACGATGACTACTCTGCTTCTCGGAGTCACCTAGTGCAG” was tested. Which binding signal did it give?
The binding signal was 10900 fluorescence intensity (a.u.).

How did the binding signal turn out when “TATATATATGTGTGTGTGTGTGTGTGTGTGTGTGTGTGTGCGGAGTCACCTAGTGCAG” was run?
Its binding signal is 10100 fluorescence intensity (a.u.).

Which binding signal does the source give for “TAAAATACTGGCTGGTCTCGATCACATATCACCTGGCACTCGGAGTCACCTAGTGCAG” here?
Its binding signal is 8360 fluorescence intensity (a.u.).

How did the binding signal turn out when “GCACTGGACTGCACGCTAACTCTCTAGTTTGTTTGTCACTCGGAGTCACCTAGTGCAG” was run?
Its binding signal is 9010 fluorescence intensity (a.u.).

Which binding signal does the source give for “ATTCTTCACCCTTTATCAGTTCACCTGTCATTTGACTCCCCGGAGTCACCTAGTGCAG” here?
The binding signal was 8760 fluorescence intensity (a.u.).

“CGTATACCTCGGAGAAGTTCTCATCCGCTGACGTGTCCCGCGGAGTCACCTAGTGCAG” was tested. Which binding signal did it give?
The binding signal was 19600 fluorescence intensity (a.u.).

“CTCCATTTCCTCCTCAGCACCTCAAGCTTTATATTTATCCCGGAGTCACCTAGTGCAG” was tested. Which binding signal did it give?
The binding signal was 8150 fluorescence intensity (a.u.).

Which binding signal does the source give for “ATCAATTGCGACTCCAGAACCTTCTCTTCTTCCTTGTTCGCGGAGTCACCTAGTGCAG” here?
Its binding signal is 10900 fluorescence intensity (a.u.).

For “CACCCGCCGCCGCCGCCTGCGCTGCCCCGCCGATCACCGTCGGAGTCACCTAGTGCAG”, which binding signal is on record?
Its binding signal is 9880 fluorescence intensity (a.u.).

Which binding signal does the source give for “TGGCCACTTGATCTGTACTTTGGCTTTGGCTTTCACTGCCCGGAGTCACCTAGTGCAG” here?
Its binding signal is 8940 fluorescence intensity (a.u.).

How did the binding signal turn out when “TTTTTGTCACTGTTTGTCTAATATTGCAATTCTCATCTCGCGGAGTCACCTAGTGCAG” was run?
The binding signal was 9190 fluorescence intensity (a.u.).

With “CTGGTAGGATTGCTGCTTGCTTTGCCTTCACGTCATTATCCGGAGTCACCTAGTGCAG” as the sequence, how does the binding signal read?
Its binding signal is 11200 fluorescence intensity (a.u.).

For “CCTGTTACTATTCACCTGAAATTTGTCTTTTTTGTTACTCCGGAGTCACCTAGTGCAG”, which binding signal is on record?
Its binding signal is 9320 fluorescence intensity (a.u.).

“ATTACTTGCCAGTTAGCCACACGCCCACACCCTCCTACTTCGGAGTCACCTAGTGCAG” was tested. Which binding signal did it give?
Its binding signal is 8460 fluorescence intensity (a.u.).

For “ACTCGCTCCGCCCACCACCACCACCCGCCGCCGCCGCCGCCGGAGTCACCTAGTGCAG”, which binding signal is on record?
Its binding signal is 8580 fluorescence intensity (a.u.).

For “ACACACCCTTCATATAAAGCCATATATATCTTTTATTCTCCGGAGTCACCTAGTGCAG”, which binding signal is on record?
Its binding signal is 8320 fluorescence intensity (a.u.).

With “GATGTCATATATCTGGTTTTGTGGTTGGGGTCAATGACAACGGAGTCACCTAGTGCAG” as the sequence, how does the binding signal read?
Its binding signal is 15200 fluorescence intensity (a.u.).

How did the binding signal turn out when “ACGTGCCGCCCGCCGTGCGCCGTTGACCCCGCCACCCGCCCGGAGTCACCTAGTGCAG” was run?
Its binding signal is 12200 fluorescence intensity (a.u.).

Which binding signal does the source give for “GGTGGGCGGAGTGGGAGGGGAGGCATCGGCGCCTCGGTGGCGGAGTCACCTAGTGCAG” here?
Its binding signal is 16800 fluorescence intensity (a.u.).

Which binding signal does the source give for “TTTTTATACTGTTGGTACATATTCAAATTTGTCAAACATTCGGAGTCACCTAGTGCAG” here?
Its binding signal is 8960 fluorescence intensity (a.u.).

Which binding signal does the source give for “CGCCTCCATGGTTTTGCGACTTTGCCGTCATTGCTTGATACGGAGTCACCTAGTGCAG” here?
Its binding signal is 8840 fluorescence intensity (a.u.).

With “CCATATATGCTAGGTCAGGCCAATGACTCCATCCTTCTTTCGGAGTCACCTAGTGCAG” as the sequence, how does the binding signal read?
Its binding signal is 8020 fluorescence intensity (a.u.).

With “GTTGTCGAGCCGTGTCAAGCCACCAATGATCTTTGACTAACGGAGTCACCTAGTGCAG” as the sequence, how does the binding signal read?
Its binding signal is 8120 fluorescence intensity (a.u.).

Which binding signal does the source give for “TGGATAGCGCTTGTGGTGTGGGCAGGGTTTACACAGATACCGGAGTCACCTAGTGCAG” here?
Its binding signal is 8400 fluorescence intensity (a.u.).

Which binding signal does the source give for “GATGACAAGTTGAGAGACCTTCCGTGTACTTTTTCCAATTCGGAGTCACCTAGTGCAG” here?
The binding signal was 9990 fluorescence intensity (a.u.).

For “CCAATTCAATTGCATACACCCCTTGCACCTCTCTCACACCCGGAGTCACCTAGTGCAG”, which binding signal is on record?
The binding signal was 8020 fluorescence intensity (a.u.).

For “ATGCTCATTCTCTCAGACTGTGTCTCCACCACTGTGCTCACGGAGTCACCTAGTGCAG”, which binding signal is on record?
Its binding signal is 9320 fluorescence intensity (a.u.).

“TTTTTCTCCCCAGATTGCTGTGCACGGATTTGCCGTAAGACGGAGTCACCTAGTGCAG” was tested. Which binding signal did it give?
Its binding signal is 8360 fluorescence intensity (a.u.).

With “CAATCACCCCAACCGCCTCACTCCTTCGCCGCCACTCCACCGGAGTCACCTAGTGCAG” as the sequence, how does the binding signal read?
Its binding signal is 8060 fluorescence intensity (a.u.).

With “TGGGGTCCCACGCTGATTCAGCCGTCACGTAGACCAAAATCGGAGTCACCTAGTGCAG” as the sequence, how does the binding signal read?
Its binding signal is 8890 fluorescence intensity (a.u.).

Which binding signal does the source give for “CCGTACTCTGATACTTCCCGTGTTACGCCTGTCACAGCTTCGGAGTCACCTAGTGCAG” here?
The binding signal was 8160 fluorescence intensity (a.u.).

For “CACCCTGACCGTCCTGTCCGCCGAGCCGCTGCACACCAGCCGGAGTCACCTAGTGCAG”, which binding signal is on record?
Its binding signal is 8640 fluorescence intensity (a.u.).

How did the binding signal turn out when “CATTCGCTTGCTTCATGCTCTACCGCAAGTCTGCAACTGTCGGAGTCACCTAGTGCAG” was run?
The binding signal was 9340 fluorescence intensity (a.u.).

For “AACCTTTTCGCCGTCCTATGACTATTTTTCTCTGGTTTCTCGGAGTCACCTAGTGCAG”, which binding signal is on record?
The binding signal was 14900 fluorescence intensity (a.u.).

Which binding signal does the source give for “CTTACTACTTCAGGGCCTGTTTAGTTCACTAACGAAAATTCGGAGTCACCTAGTGCAG” here?
The binding signal was 8400 fluorescence intensity (a.u.).

With “GGCTTCAACTCACACACATGTTTATTCTACATTTTTTAAGCGGAGTCACCTAGTGCAG” as the sequence, how does the binding signal read?
The binding signal was 9010 fluorescence intensity (a.u.).

Which binding signal does the source give for “TGGTTTAATTTCATCAGTTTTCCTCCATTTCCTTCTTTAGCGGAGTCACCTAGTGCAG” here?
The binding signal was 9830 fluorescence intensity (a.u.).

From article PMC7819943, “Rice protein-binding microarrays: a tool to detect cis-acting elements near promoter regions in rice”
